Measurements reported in patent US7727950B2, “Methods and reagents for assaying protein kinase activity” (The University of Dundee, priority 2002, dated 2010).
At least one peptide structure holds a part that was inferred or is arguable (an end, a ring closure or a residue). Ends that are not written are not given here.

Sequences of proteins named here, by UniProt entry; tags and fusion partners are left off.
UniProt P49137, whole entry: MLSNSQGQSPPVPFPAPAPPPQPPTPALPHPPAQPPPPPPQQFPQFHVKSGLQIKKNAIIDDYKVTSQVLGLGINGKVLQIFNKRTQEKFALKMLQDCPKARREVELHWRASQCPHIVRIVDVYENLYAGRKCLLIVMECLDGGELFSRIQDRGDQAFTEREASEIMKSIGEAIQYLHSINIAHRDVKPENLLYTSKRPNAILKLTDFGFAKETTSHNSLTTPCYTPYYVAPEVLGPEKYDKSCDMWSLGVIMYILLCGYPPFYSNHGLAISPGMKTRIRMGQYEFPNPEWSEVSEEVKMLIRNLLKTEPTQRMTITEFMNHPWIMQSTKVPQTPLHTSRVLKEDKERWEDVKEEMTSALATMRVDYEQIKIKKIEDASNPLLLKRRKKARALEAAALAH

Experiments:
Test in all cases: Kinetic parameters for peptide phosphorylation, radioactive filter-binding assay
[1] = biological target: CaMKII (Homo sapiens, UniProt Q9UQM7); conditions: relative to Standard Substrate MHRQETVDCLK
[2] = biological target: T1, CHK1 (Homo sapiens, UniProt O14757); type: biochemical; conditions: relative to Standard Substrate KKKVSRSGLYRSPSMPENLNRPR
T1 construct: made in house; host or cells: Sf21 insect cells
T1 sequence (O14757 1-476): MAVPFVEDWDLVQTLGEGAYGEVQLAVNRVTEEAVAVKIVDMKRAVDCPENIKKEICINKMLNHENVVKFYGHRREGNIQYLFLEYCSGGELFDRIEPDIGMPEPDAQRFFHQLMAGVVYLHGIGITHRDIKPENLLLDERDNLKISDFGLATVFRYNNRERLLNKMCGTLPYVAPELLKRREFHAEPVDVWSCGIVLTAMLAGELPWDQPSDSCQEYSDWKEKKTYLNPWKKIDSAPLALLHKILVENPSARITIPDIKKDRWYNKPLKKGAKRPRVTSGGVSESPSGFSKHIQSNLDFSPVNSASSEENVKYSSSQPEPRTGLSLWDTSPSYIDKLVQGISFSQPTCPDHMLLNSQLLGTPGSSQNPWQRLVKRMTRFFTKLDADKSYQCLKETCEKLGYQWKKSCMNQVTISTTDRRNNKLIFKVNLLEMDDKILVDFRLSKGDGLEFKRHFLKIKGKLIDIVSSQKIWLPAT
Description: Apart from the AMP-activated protein kinase (AMPK, a gift from Drs S. Hawley and D. G. Hardie), cGMP-dependent protein kinase (PKG, a generous gift from Drs Susan Lohmann and Ulrich Walter, University of Wurzburg, Germany) and the catalytic subunit of cyclic AMP-dependent protein kinase (PKA, a gift from Dr C. Smythe), which were isolated from rat liver, bovine lung and bovine heart, respectively, all other protein kinases were expressed as either GST-fusion or His-tagged proteins (by a person, a person, Dr A. Paterson or a person, in this Division). The expressed proteins all corresponded to the human sequences apart from the rat Rho-dependent protein kinase (ROCK-II) and rat mitogen-activated protein kinase (MAPK) activated kinase-1a (MAPKAP-K1a, also called RSK). GST-fusion proteins were purified on GSH-agarose (Amersham Pharmacia Biotech, Amersham, UK) and His-tagged proteins on Ni-NTA agarose (Qiagen) essentially according to the manufacturer's instructions. All the protein kinases used in this study are available from Upstate Biotechnology Inc. (Lake Placid, N.Y., USA), apart from the α-isoform of calmodulin-dependent protein kinase II (CaMKII), MAPKAP-K3 and PKG.
The following enzymes were expressed in Sf21 cells: Checkpoint Kinase 1 (CHK1), p38 regulated/activated kinase (PRAK), protein kinase Bα (PKBα), MAPKAP-K1a and serum and glucocorticoid-induced kinase 1 (SGK1[S422D] and lacking the N-terminal 59 residues), mitogen and stress-activated protein kinase 1 (MSK1), p70 ribosomal S6 kinase 1 (S6K1[T412E], lacking the C-terminal 104 residues), c-Raf, protein kinase C (PKCα, Calbiochem Novachem Corp.), rat ROCKII[1-543].
All protein kinase assays were linear with respect to time. The assays with standard peptide substrates have been described previously. The assays with the three generic peptides introduced in this example were carried out in the same buffers as follow. Unlabelled or biotinylated substrate peptides were assayed for 10 min at 30° C. in 50 μl incubations, in the presence of 0.1 mM [y^32P]ATP or unlabelled ATP. Radioactive assays were terminated by spotting 40 μl of each incubation on to phosphocellulose paper followed by immersion in 75 mM phosphoric acid. All papers were subsequently washed a further three times in phosphoric acid, once in acetone, then dried and counted for radioactivity. […] The plates were then washed six times (five min per wash) in PBS, 0.1% Tween 20 and binding of the phospho-specific antibody detected by incubating the plates with peroxidase-conjugated anti-sheep antibodies (Pierce). […] Signals were quantitated on LAS-1000IR software (FujiFilm). […]

[3] = biological target: T2, MAPKAP-K2 (Homo sapiens, UniProt P49137); type: biochemical; conditions: relative to Standard Substrate KKLNRTLSVA
T2 construct: GST; made in house; host or cells: E. coli

Sequence: RARTLSFAEPG
- Relative Vmax [1]: 80%
- Relative Vmax [2]: 117%
- Relative Vmax [3]: 52%
